Measurements from US12209086B2, “FGFR3 inhibitor compounds” (ELI LILLY AND COMPANY, priority 2021, dated 2025).
pIC50: −log10 of the molar value. Some results were stated once for a whole list of compounds, not compound by compound.

Protein sequences, listed by entry. Tags and fused reporters are not part of them. Residues count along the entry.
UniProt P22607, 23-806: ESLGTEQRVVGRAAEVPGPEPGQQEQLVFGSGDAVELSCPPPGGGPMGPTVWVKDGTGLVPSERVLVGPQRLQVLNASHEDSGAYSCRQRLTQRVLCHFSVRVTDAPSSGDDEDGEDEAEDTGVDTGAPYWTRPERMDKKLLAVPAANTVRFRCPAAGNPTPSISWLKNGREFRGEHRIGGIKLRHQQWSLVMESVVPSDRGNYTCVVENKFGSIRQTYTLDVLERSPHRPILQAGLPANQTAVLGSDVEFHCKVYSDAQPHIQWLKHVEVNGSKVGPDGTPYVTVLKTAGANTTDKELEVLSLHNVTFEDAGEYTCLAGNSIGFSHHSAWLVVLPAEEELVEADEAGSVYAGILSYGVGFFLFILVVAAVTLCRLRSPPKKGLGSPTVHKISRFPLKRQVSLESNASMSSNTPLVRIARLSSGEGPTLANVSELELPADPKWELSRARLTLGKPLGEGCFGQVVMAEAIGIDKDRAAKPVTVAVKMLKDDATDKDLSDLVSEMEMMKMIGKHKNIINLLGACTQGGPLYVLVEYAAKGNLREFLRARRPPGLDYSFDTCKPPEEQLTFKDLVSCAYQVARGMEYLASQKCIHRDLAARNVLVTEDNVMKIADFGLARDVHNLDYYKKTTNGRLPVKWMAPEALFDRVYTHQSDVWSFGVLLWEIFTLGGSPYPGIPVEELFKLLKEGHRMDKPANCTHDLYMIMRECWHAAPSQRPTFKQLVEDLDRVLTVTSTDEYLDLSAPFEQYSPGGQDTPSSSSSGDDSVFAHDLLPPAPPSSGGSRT

What follows are compounds tested against T1, FGFR3 protein (Homo sapiens, UniProt P22607) (assay: FGFR3 enzyme assay (KinEASE-TK HTRF kinase assay)). Conditions: 0.25 nM enzyme, ATP at Km, 15 min pre-incubation on ice, 30 min at 30° C.
T1 construct: purchased Reaction Biology 1068
Assay type: biochemical

pIC50, > 6.46:
Cc1c(-c2cc(OC(C)c3cccc4cnsc34)c3c(C#N)cnn3c2)nnn1C1CCN(C#N)CC1 (single isomer, unassigned; isomer 1) [Example 79, 4-[1-(1,2-benzothiazol-7-yl)ethoxy]-6-[1-(1-cyano-4-piperidyl)-5-methyl-triazol-4-yl]pyrazolo[1,5-a]pyridine-3-carbonitrile, Isomer 1]
Cc1c(-c2cc(OC(C)C3CC(F)(F)C3)n3c(C#N)cnc3c2)nnn1C1CCN(C#N)CC1 (single isomer, unassigned; isomer 1) [Example 82, 7-[1-(1-Cyano-4-piperidyl)-5-methyl-triazol-4-yl]-5-[1-(3,3-difluorocyclobutyl)ethoxy]imidazo[1,2-a]pyridine-3-carbonitrile, Isomer 1]
COCC(Oc1cc(-c2nnn(C3CCN(C#N)CC3)c2C)cn2ncc(C#N)c12)c1ccc(F)cn1 (single isomer, unassigned; isomer 1) [Example 144, 6-[1-(1-Cyano-4-piperidyl)-5-methyl-triazol-4-yl]-4-[1-(5-fluoro-2-pyridyl)-2-methoxy-ethoxy]pyrazolo[1,5-a]pyridine-3-carbonitrile]
COCC(Oc1cc(-c2nnn(C3CCN(C#N)CC3)c2C)cn2ncc(C#N)c12)c1cncc(C(F)(F)F)c1 (single isomer, unassigned; isomer 1) [Example 147, 6-[1-(1-Cyano-4-piperidyl)-5-methyl-triazol-4-yl]-4-[2-methoxy-1-[5-(trifluoromethyl)-3-pyridyl]ethoxy] pyrazolo [1,5-a]pyridine-3-carbonitrile]
Cc1c(-c2cc(OC(CO)c3ccc(F)cn3)n3c(Cl)cnc3c2)nnn1C1CCN(C#N)CC1 (single isomer, unassigned; isomer 2) [Example 47, 4-[4-[3-Chloro-5-[1-(5-fluoro-2-pyridyl)-2-hydroxy-ethoxy]imidazo[1,2-a]pyidine-7-yl]-5-methyl-triazol-1-yl]piperidine-1-carbonitrile, Isomer 2]
Cc1nnc(C(C)Oc2cc(-c3nnn(C4CCN(C#N)CC4)c3C)cc3ncc(C#N)n23)s1 (single isomer, unassigned; isomer 2) [Example 84, 7-[1-(1-Cyano-4-piperidyl)-5-methyl-triazol-4-yl]-5-[1-(5-methyl-1,3,4-thiadiazol-2-yl)ethoxy]imidazo[1,2-a]pyridine-3-carbonitrile, Isomer 2]
Cc1c(-c2cc(OC(C)c3ccccc3C(N)=O)c3c(C#N)cnn3c2)nnn1C1CCN(C#N)CC1 (centres unmarked) [Example 1, 2-[1-[3-Cyano-6-[1-(1-cyano-4-piperidyl)-5-methyl-triazol-4-yl]pyrazolo[1,5-a]pyridine-4-yl]oxyethyl]benzamide]
Cc1cnnc(C(C)Oc2cc(-c3nnn(C4CCN(C#N)CC4)c3C)cn3ncc(C#N)c23)c1 (centres unmarked) [Example 2, 6-[1-(1-Cyano-4-piperidyl)-5-methyl-triazol-4-yl]-4-[1-(5-methylpyridazin-3-yl)ethoxy]pyrazolo[1,5-a]pyridine-3-carbonitrile]
Cc1c(-c2cc(OC(C)c3cc(Cl)cnn3)c3c(C#N)cnn3c2)nnn1C1CCN(C#N)CC1 (centres unmarked) [Example 3, 4-[1-(5-Chloropyridazin-3-yl)ethoxy]-6-[1-(1-cyano-4-piperidyl)-5-methyl-triazol-4-yl]pyrazolo[1,5-a]pyridine-3-carbonitrile]
Cc1cnnc(C(C)Oc2cc(-c3nnn(C4CCN(C#N)CC4)c3C)cc3ncc(C#N)n23)c1 (centres unmarked) [Example 4, 7-[1-(1-Cyano-4-piperidyl)-5-methyl-triazol-4-yl]-5-[1-(5-methylpyridazin-3-yl)ethoxy]imidazo[1,2-a]pyridine-3-carbonitrile]
Cc1cncc(C(C)Oc2cc(-c3nnn(C4CCN(C#N)CC4)c3C)cc3ncc(C#N)n23)c1 (centres unmarked) [Example 5, 7-[1-(1-Cyano-4-piperidyl)-5-methyl-triazol-4-yl]-5-[1-(5-methyl-3-pyridyl)ethoxy]imidazo [1,2-a]pyridine-3-carbonitrile]
